Measurements: publication PMC5738357
These are yes or no findings as the source states them, for the method shown. In cells and extracts the contact can be indirect. These calls come from enrichment with a bait or labelling near it, and not all partners need be listed.

Amino acid sequences for entries named in this document (tags omitted). A change or cut given only in a name is not applied to a line headed by its entry.
UniProt P42945: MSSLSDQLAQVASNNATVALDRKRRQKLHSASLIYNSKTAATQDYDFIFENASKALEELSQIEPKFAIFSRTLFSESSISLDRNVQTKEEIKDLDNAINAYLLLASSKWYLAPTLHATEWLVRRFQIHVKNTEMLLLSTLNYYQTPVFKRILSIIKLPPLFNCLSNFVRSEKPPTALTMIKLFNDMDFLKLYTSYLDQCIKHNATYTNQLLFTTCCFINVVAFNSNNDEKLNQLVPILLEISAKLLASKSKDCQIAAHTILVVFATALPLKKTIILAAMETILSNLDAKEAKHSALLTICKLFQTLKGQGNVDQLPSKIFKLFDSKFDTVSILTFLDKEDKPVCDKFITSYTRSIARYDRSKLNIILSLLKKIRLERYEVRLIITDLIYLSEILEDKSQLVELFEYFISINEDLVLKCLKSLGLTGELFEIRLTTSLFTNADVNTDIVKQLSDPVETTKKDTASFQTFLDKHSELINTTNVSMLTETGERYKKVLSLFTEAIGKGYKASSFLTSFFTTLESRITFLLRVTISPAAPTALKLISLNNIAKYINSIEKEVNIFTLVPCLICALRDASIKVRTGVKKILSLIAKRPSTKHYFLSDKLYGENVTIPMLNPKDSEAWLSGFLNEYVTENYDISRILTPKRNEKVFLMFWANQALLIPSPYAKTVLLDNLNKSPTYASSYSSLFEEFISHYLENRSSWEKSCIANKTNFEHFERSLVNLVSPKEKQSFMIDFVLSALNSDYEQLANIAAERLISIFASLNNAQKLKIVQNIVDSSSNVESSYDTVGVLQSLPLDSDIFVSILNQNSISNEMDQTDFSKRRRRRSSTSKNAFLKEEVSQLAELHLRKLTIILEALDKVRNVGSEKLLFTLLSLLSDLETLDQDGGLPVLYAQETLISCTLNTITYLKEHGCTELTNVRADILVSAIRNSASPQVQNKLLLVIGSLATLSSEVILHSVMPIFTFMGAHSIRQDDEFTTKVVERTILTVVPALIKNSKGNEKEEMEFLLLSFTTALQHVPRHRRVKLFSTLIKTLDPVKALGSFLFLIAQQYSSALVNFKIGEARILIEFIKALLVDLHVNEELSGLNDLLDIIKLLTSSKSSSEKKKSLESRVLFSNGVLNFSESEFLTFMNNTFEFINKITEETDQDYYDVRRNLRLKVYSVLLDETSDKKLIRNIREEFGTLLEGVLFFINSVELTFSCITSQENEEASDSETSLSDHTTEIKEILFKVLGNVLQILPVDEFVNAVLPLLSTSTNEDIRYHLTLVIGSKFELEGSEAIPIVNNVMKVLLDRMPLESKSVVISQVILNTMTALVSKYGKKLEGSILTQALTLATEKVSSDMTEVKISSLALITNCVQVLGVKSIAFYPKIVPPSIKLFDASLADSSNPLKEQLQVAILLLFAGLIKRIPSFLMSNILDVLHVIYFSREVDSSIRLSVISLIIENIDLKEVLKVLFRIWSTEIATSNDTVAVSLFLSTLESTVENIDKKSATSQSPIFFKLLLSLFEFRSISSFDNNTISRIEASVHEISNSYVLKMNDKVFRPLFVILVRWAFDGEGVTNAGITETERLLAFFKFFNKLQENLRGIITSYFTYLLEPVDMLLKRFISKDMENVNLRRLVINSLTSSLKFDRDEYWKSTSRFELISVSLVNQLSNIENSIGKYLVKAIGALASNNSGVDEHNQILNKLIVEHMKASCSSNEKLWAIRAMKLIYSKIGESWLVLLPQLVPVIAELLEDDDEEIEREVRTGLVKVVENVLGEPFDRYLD
UniProt P25586: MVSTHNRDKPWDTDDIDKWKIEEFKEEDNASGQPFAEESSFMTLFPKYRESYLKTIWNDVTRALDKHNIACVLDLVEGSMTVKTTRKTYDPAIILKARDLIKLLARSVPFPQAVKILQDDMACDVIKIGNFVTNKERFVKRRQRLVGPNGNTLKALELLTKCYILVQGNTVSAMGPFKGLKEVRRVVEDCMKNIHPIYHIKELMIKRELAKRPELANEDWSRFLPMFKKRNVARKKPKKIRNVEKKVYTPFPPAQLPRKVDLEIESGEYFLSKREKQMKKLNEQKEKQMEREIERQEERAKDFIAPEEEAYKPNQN
UniProt P33442: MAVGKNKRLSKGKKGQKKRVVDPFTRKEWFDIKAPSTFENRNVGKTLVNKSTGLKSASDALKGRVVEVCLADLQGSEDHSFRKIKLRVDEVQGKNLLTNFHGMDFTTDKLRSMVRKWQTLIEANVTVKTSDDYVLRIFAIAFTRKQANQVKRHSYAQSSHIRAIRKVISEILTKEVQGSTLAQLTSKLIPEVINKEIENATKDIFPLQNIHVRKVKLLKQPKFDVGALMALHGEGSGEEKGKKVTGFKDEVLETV

T1: scUtp1-FTpA (S. cerevisiae) (UniProt P25635)
T1 sequence: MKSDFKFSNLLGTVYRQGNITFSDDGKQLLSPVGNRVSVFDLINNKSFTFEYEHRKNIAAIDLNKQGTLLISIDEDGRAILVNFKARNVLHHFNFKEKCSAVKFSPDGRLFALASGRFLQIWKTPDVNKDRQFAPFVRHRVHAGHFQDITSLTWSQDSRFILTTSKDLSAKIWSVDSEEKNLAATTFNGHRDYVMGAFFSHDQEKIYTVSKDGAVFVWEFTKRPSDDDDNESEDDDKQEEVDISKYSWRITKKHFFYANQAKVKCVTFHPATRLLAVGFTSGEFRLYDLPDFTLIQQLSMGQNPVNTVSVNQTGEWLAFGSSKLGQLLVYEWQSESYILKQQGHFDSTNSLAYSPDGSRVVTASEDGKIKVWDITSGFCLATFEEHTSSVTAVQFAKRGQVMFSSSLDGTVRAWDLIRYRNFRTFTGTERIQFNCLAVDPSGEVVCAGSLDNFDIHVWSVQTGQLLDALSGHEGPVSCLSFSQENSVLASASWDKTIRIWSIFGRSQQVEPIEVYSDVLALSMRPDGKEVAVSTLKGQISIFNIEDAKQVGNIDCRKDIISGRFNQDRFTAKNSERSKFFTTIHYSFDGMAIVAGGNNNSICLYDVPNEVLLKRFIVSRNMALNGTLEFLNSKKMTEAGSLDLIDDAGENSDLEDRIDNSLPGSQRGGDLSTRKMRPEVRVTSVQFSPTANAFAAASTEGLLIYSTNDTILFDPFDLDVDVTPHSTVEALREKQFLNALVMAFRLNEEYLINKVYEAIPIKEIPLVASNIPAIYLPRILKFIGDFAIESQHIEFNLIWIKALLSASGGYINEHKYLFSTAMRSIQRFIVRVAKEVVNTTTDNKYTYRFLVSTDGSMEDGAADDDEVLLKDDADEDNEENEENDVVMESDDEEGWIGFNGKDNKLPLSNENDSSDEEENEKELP

B1: Dhr1 (endogenous, yeast) (protein, UniProt Q04217 1-1267)
chain: MGTYRKRFNEKARSGHMAKLKELKRIRNKQFTRQDENDERVENPDSAPAESSTTEPNANAEILEPLTEEEKKMKKRKLQELFTPKESKVSRLKKKRLDKFIEHQLKREERKTIIGKLQDYKIDTSLLTSSKRLGEGRQTKKEEFKEALSLERQGRGNEQTNEILYEEYEPKVWDEYGEGGSSEDDDGEDDFEASFGSMPKPTDNEEKKSSGFIDHRPAKFGGSGLSFGFSNIKVINKESKTPKKKYNWRQRVEMEELKKHGKEDEMDFDTTSEDDDEEEDQEEEDKMHPSENPLEEVESADSETGSEKFDQNDVANEFKDWANQEIKKLEGRDQELVTPTLNIDYKPIIRKEDLDDGLQEAYVPINENSTRKAFYVEVSRSDEIQKARIQLPVFGEEHKIMEAIHHNDVVIICGETGSGKTTQVPQFLYEAGFGAEDSPDYPGMVGITQPRRVAAVSMAERVANELGDHGHKVGYQIRFDSTAKEDTKVKFMTDGVLLREMMHDFKLTKYSSIIIDEAHERNINTDILIGMLSRCVRLRAKLHKENPIEHKKLKLIIMSATLRVSDFSENKTLFPIAPPVLQVDARQFPVSIHFNRRTAFNYTDEAFRKTCKIHQKLPPGAILVFLTGQQEITHMVKRLRKEFPFKKNSKYNKDLETPVSKMGINSKTTDLEAEDIDFSVQVIDQDKFKSAIRYEEDEGNSGNGEDEEDEEEEGFEEVLTEGQTANDPLYVLPLYSLLPTKEQMRVFQKPPQGSRLCIVATNVAETSLTIPGVRYVVDSGRSKERKYNESNGVQSFEVGWVSKASANQRSGRAGRTGPGHCYRLYSSAVFEHDFEQFSKPEILRMPVESIVLQMKSMAIHNIINFPFPTPPDRVALSKAIQLLQYLGALDNKEMITEDGKKMSLFPLSPRFSKMLLVSDEKACLPYIVAIVSALSVGDPFINEFELGINEISRKPNPDENLDDKIREHDESTPGMDPELKKELRSKFYKSRSQFSKLDKFSDVFRLLSVVSAMDYVPKEQKEIFMKKNFLRGKLMEEIVKLRKQLMYIIKSNTSKENIAVVIRNEDLKSDIPSVIQIKLLKQMICAGFVDHVAVRADVLFPDDAKITNRTSIINIPYIPVLATRTPNIEDCFVYIHPTSILNNLGEMPPKYMLYYSLHLGGNNKTRMNTLCDIASTPLANIARKGLLLTYSKPLTGQGLKTVNLSPTERYCYVVPRFGSTVDNDLKIGWDLNPIAVHQKKQKGQWTVIKFITRKGFQTITGEEKEKK
B2: Rps5 (protein, UniProt P26783 1-225)
chain: MSDTEAPVEVQEDFEVVEEFTPVVLATPIPEEVQQAQTEIKLFNKWSFEEVEVKDASLVDYVQVRQPIFVAHTAGRYANKRFRKAQCPIIERLTNSLMMNGRNNGKKLKAVRIIKHTLDIINVLTDQNPIQVVVDAITNTGPREDTTRVGGGGAARRQAVDVSPLRRVNQAIALLTIGAREAAFRNIKTIAETLAEELINAAKGSSTSYAIKKKDELERVAKSNR
B3: Rrp7 (endogenous, yeast) (protein, UniProt P25368 1-297)
chain: MGIEDISAMKNGFIVVPFKLPDHKALPKSQEASLHFMFAKRHQSSNSNESDCLFLVNLPLLSNIEHMKKFVGQLCGKYDTVSHVEELLYNDEFGLHEVDLSALTSDLMSSTDVNEKRYTPRNTALLKFVDAASINNCWNALKKYSNLHAKHPNELFEWTYTTPSFTTFVNFYKPLDIDYLKEDIHTHMAIFEQREAQAQEDVQSSIVDEDGFTLVVGKNTKSLNSIRKKILNKNPLSKHENKAKPISNIDKKAKKDFYRFQVRERKKQEINQLLSKFKEDQERIKVMKAKRKFNPYT
B4: Rok1 (protein, UniProt P45818 1-564)
chain: MDIFRVLTRGASVKKESGPKAKAADYSVINGNDENHKEDNNESQIVKELDFFRNKRIISKVEDDREKTTENDSPNKEEKSGNDDGLIKPVITNTVEASALRKSYKGNVSGIDIPLPIGSFEDLISRFSFDKRLLNNLIENGFTEPTPIQCECIPVALNNRDVLACGPTGSGKTLAFLIPLVQQIIDDKQTAGLKGLIISPTKELANQIFIECFKLSYKIFLEKKRPLQVALLSKSLGAKLKNKVVSDKKYDIIISTPLRLIDVVKNEALDLSKVKHLIFDEADKLFDKTFVEQSDDILSACREPSLRKAMFSATIPSNVEEIAQSIMMDPVRVIIGHKEAANTNIEQKLIFCGNEEGKLIAIRQLVQEGEFKPPIIIFLESITRAKALYHELMYDRINVDVIHAERTALQRDRIIERFKTGELWCLICTDVLARGIDFKGVNLVINYDVPGSSQAYVHRIGRTGRGGRSGKAITFYTKQDSVAIKPIINVMKQSGCEVSEWMDKMAKMTRKEKESIKNGKAHKERKQITTVPKMDKAKRRRQQEMIAASKRRKNEELSKKHFSK

Legend:
[1] = target: T1, scUtp1-FTpA (S. cerevisiae); test: affinity purification with mass spectrometry; tandem affinity-purification of FTpA-tagged yeast baits (IgG Sepharose, TEV, Flag agarose); SDS-PAGE, Coomassie, bands identified by mass spectrometry; cells expressing or depleted of Dim2 (GAL::scDIM2, glucose 8 h) or with or without Krr1 degradation (auxin 90 min)
[2] = target: scUtp10-FTpA (S. cerevisiae) (UniProt P42945); test: as above
[3] = target: scKrr1-FTpA (S. cerevisiae) (UniProt P25586); test: affinity purification with mass spectrometry; semi-quantitative mass spectrometry (1D nLC-ESI-MS-MS, MaxQuant iBAQ normalised to the bait) of FTpA eluates from depleted and non-depleted cells
[4] = target: scKrr1-FTpA (S. cerevisiae) (UniProt P25586); test: affinity purification with mass spectrometry; tandem affinity-purification of FTpA-tagged yeast baits (IgG Sepharose, TEV, Flag agarose); SDS-PAGE, Coomassie, bands identified by mass spectrometry; cells expressing or depleted of Dim2 (GAL::scDIM2, glucose 8 h) or with or without Krr1 degradation (auxin 90 min)
[5] = target: scUtp10-FTpA (S. cerevisiae) (UniProt P42945); test: affinity purification with mass spectrometry; semi-quantitative mass spectrometry (1D nLC-ESI-MS-MS, MaxQuant iBAQ normalised to the bait) of FTpA eluates from depleted and non-depleted cells

Molecule	binding [1]	binding [2]	binding [3]	binding [4]	binding [5]
Rps1 (endogenous, yeast) (from UniProt P33442)	binds	binds			
B1	binds		binds	binds	
B2	binds	binds			
B3					binds
B4					binds
